# Measurements from PubChem BioAssay AID445 (National Center for Advancing Translational Sciences (NCATS), 2006).
# This is one part of the list. These are further read-outs of the screen, such as a control signal, another cell line or another target. No call is given for them. Compounds called inactive in the main read-out are mostly missing here. Words in brackets tell the shape of the fitted curve; partial curves, single points and poor fits give uncertain potencies.
# Experiment: IkB Signaling
# Details: ABC-DLBCL IkBa-CBG/CBR dual luciferase ratio (green luciferase fused to IkBa over red control in OCI-Ly3 lymphoma cells), 4 h
# In short: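 Curves were fitted separately to fusion (green), unfused (red) and ratio luminescence, then classed by r2, magnitude and activity. Cells: OCI-Ly3, 4 h compound plus doxycycline at 37C; 10 uM MG-132 defined full response.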
# [1] = measured here: control luc red channel unless noted
smiles,measurement,setting,value
CCOc1ccccc1NC(=O)CSc1nc2ccccc2nc1Cc1ccc(C)cc1,AC50,[1],"10 µM [falling, partial curve]"
CCn1nc(C)c(NC(=O)CCCSc2nc(-c3ccco3)cc(C(F)(F)F)n2)c1C,AC50,[1],"20 µM [falling, partial curve]"
CC(=O)c1ccc(NC(=O)c2sc(-n3nc(C)c(CCC(C)C)c3C)nc2C)cc1,AC50,[1],"10 µM [falling, partial curve]"
CC(=O)N1CCCC1c1nc2ccccc2n1Cc1c(F)cccc1Cl (stereo not given),AC50,[1],"15.8 µM [falling, single point]"
CCc1ccc(OCC(=O)Nc2ccc(S(=O)(=O)Nc3onc(C)c3C)cc2)cc1,AC50,[1],"5.01 µM [falling, partial curve]"
COC(=O)/C=C\c1cc(O)ccc1O,AC50,measured here: IkB-luc green channel,"39.8 µM [rising, partial curve, poor fit]"
same,AC50,measured here: control luc red channel,"39.8 µM [falling, single point]"
Cc1ccccc1NC(=O)Nc1csc2c1CCCC2,AC50,[1],"15.8 µM [falling, partial curve]"
COc1ccc2nc(NC(=O)C3CCCN(S(=O)(=O)c4cccs4)C3)sc2c1 (stereo not given),AC50,[1],"15.8 µM [falling, partial curve]"
CCOc1ccc(CN2C(=O)c3ccccc3Sc3ccc(C(=O)NCc4ccc5c(c4)OCO5)cc32)cc1,AC50,[1],"0.794 µM [falling, full curve]"
COc1ccc(C2C(C(=O)Nc3ccccc3)=C(C)Nc3nc(-c4ccccc4)nn32)c(OC)c1 (stereo not given),AC50,[1],"15.8 µM [falling, partial curve]"
Cc1cccc(NC(=O)Cn2c(=O)n(CCc3ccccc3)c(=O)c3ccccc32)c1,AC50,[1],"10 µM [falling, partial curve, poor fit]"
CN(C)c1ccc(NC(=O)c2cccc(N3C(=O)C4C5C=CC(C5)C4C3=O)c2)cc1 (stereo not given),AC50,[1],"12.6 µM [falling, partial curve]"
Cc1cccc(N2CCN(C(=O)C3CCCN(S(=O)(=O)c4c(C)noc4C)C3)CC2)c1C (stereo not given),AC50,[1],"15.8 µM [falling, partial curve]"
O=C(Cn1c(=O)n(Cc2ccco2)c(=O)c2oc3ccccc3c21)Nc1ccc(F)cc1F,AC50,[1],"10 µM [falling, partial curve]"
CCC(Sc1nnc(C)n2c1cc1occc12)C(=O)Nc1ccccc1F (stereo not given),AC50,[1],"25.1 µM [falling, single point]"
Cn1c(=O)n(C)c2cc(NS(=O)(=O)c3ccccc3)c(NCc3ccccc3)cc21,AC50,[1],"20 µM [falling, single point]"
CCOC(=O)c1cnc2sc3c(n2c1=O)CCCC3,AC50,[1],"1.58 µM [falling, partial curve]"
O=C(Nc1cccc(Cl)c1)c1c(NC(=O)C(F)(F)F)sc2c1CCCC2,AC50,[1],"2 µM [falling, full curve]"
CSc1nsc(NC(=O)Cc2ccccc2)n1,AC50,[1],"12.6 µM [falling, single point]"
COc1ccc(S(=O)(=O)N(CC(=O)NCc2ccccc2OC)c2ccc(C)cc2)cc1,AC50,[1],"39.8 µM [falling, partial curve]"
CCOCCOC(=O)c1ccc(NC(=O)/C=C/c2ccc(OC)c(OC)c2)cc1,AC50,[1],"15.8 µM [falling, partial curve, poor fit]"
O=C(CSc1ncc2c(n1)-c1ccccc1N(Cc1ccc(F)cc1)S2(=O)=O)c1ccc(Cl)cc1,AC50,[1],"10 µM [falling, partial curve]"
Cc1cccc(C)c1-n1ncc(C(=O)Nc2ccc3c(c2)OCCO3)c1C1CCN(C(=O)OC(C)(C)C)CC1,AC50,[1],"15.8 µM [falling, partial curve]"
COc1ccc(Nc2c(-c3cc(Br)ccc3O)nc3ncccn23)cc1OC,AC50,[1],"12.6 µM [falling, partial curve]"
Cc1ccc(NCc2cccn2-c2nnc(N3CCC(C(=O)NCc4ccc(OC(C)C)cc4)CC3)s2)cc1,AC50,[1],"0.126 µM [falling, full curve]"
COc1ccccc1N1CCN(S(=O)(=O)c2c(C)sc3ncn(CC(=O)N(C)c4ccc(C(C)C)cc4)c(=O)c23)CC1,AC50,[1],"7.94 µM [falling, full curve, poor fit]"
COc1ccccc1CNC(=O)CN1C(=O)CSc2ccc(S(=O)(=O)N3CCCC3)cc21,AC50,[1],"31.6 µM [falling, single point]"
Cc1ccc(-c2noc(CNC(=O)c3ccc(C(C)(C)C)cc3)n2)cc1,AC50,[1],"20 µM [falling, partial curve]"
O=C(Nc1ccccn1)c1ccc2ccccc2n1,AC50,[1],"15.8 µM [falling, partial curve]"
Cc1cc(C)cc(NC(=O)c2nnn(Cc3cc(C)ccc3C)c2N)c1,AC50,[1],"12.6 µM [falling, partial curve]"
COc1ccc(N2CCN(c3cc(C)nc4nc(-c5ccc(C)cc5)nn34)CC2)cc1,AC50,[1],"39.8 µM [rising, single point] [measured here: IkB-luc green channel]"
COc1ccccc1-c1noc(-c2ccc(N3CCN(c4ccccc4)CC3)c([N+](=O)[O-])c2)n1,AC50,[1],"20 µM [falling, single point]"
Cc1ccc(Cl)cc1NC(=O)N1CCN(C)c2ncccc21,AC50,[1],"7.94 µM [rising, single point]"
Cc1cccc(C(=O)N2CCc3cc(CNC(=O)CCc4ccccc4)ccc32)c1,AC50,[1],"12.6 µM [falling, partial curve]"
Cc1cc(C)cc(NC(=O)CSc2nccn2-c2ccccc2)c1,AC50,[1],"39.8 µM [falling, single point]"
Cc1cccc2nc(-c3cccnc3)c(Nc3ccc(C(C)C)cc3)n12,AC50,[1],"10 µM [falling, partial curve]"
COc1ccc2c(c1)-c1nc(NC(=O)c3ccco3)sc1CC2,AC50,[1],"31.6 µM [falling, single point]"
Cc1ccc(-c2cc(N)n3nc(-c4ccc(C)cc4)cc3n2)cc1,AC50,[1],"20 µM [falling, partial curve]"
O=C(Cn1cc(SCc2ccc(C(F)(F)F)cc2)c2ccccc21)N1CCCCC1,AC50,[1],"15.8 µM [falling, partial curve]"

# 2 entries picked at random from those above:
smiles,measurement,setting,value
Cc1ccccc1NC(=O)Nc1csc2c1CCCC2,AC50,[1],"15.8 µM [falling, partial curve]"
Cc1ccc(Cl)cc1NC(=O)N1CCN(C)c2ncccc21,AC50,[1],"7.94 µM [rising, single point]"
